Measured values as given in article doi:10.1101/149484.
These are yes or no findings as the source states them, for the method shown. Some results given as binding are weak or reduced against the parent protein; the word gives no strength.

Protein sequences, listed by entry. Tags and fused reporters are not part of them.
UniProt P35631: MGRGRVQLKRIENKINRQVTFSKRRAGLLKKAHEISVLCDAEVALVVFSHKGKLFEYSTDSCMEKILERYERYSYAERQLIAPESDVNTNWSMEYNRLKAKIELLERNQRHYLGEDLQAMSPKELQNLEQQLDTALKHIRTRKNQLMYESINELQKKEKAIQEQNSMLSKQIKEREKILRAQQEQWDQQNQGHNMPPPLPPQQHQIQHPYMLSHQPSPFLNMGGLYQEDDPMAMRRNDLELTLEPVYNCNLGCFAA
UniProt P29382: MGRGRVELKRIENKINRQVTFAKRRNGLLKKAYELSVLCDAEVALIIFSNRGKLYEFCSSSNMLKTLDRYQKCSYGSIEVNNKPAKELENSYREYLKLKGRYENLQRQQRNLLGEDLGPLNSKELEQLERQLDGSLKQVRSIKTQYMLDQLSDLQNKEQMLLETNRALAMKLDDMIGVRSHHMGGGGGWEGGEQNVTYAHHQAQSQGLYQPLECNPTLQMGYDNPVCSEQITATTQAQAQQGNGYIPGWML
UniProt P29384: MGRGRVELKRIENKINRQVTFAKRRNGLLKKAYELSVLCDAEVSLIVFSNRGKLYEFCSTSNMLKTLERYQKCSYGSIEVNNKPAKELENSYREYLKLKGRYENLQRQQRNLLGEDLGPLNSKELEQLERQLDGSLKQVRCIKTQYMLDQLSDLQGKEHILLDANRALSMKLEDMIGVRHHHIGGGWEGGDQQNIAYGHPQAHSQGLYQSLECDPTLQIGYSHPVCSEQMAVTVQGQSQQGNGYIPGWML
UniProt O22456: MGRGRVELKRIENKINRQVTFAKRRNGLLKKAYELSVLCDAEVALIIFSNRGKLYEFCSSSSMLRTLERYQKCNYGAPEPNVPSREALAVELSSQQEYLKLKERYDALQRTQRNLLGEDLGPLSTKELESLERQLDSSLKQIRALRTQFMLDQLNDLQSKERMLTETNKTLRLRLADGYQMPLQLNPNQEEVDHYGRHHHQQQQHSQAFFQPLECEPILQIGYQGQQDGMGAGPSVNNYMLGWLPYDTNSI
UniProt P29383: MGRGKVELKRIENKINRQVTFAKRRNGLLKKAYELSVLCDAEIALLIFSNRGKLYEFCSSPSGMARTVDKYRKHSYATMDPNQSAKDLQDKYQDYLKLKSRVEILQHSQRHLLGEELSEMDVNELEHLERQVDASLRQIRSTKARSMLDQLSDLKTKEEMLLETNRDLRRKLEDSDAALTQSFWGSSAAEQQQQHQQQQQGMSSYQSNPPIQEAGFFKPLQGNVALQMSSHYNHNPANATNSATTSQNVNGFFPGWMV
UniProt Q8RYD9: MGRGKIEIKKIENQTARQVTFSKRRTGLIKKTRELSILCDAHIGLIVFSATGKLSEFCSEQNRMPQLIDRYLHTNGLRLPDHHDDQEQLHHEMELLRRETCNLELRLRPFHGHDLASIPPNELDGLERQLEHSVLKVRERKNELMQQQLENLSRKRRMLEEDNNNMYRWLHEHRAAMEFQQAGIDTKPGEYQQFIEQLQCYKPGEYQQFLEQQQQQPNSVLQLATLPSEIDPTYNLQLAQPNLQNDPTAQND

Legend:
Assay in all cases: two-hybrid
AP1 (A. thaliana) = AP1 (A. thaliana) (UniProt P35631)
[1] = target: SEP1 from A. thaliana (A. thaliana) (UniProt P29382)
SEP2 (A. thaliana) = SEP2 (A. thaliana) (UniProt P29384)
[2] = target: SEP3 from A. thaliana (A. thaliana) (UniProt O22456)
[3] = target: SEP4 from A. thaliana (A. thaliana) (UniProt P29383)

In the case of “ARABIDOPSIS BSISTER (ABS) from A. thaliana (from UniProt Q8RYD9 1-252)”, the binding (AP1 (A. thaliana)) is reported as “binds”, the binding [1] is reported as “binds” and the binding (SEP2 (A. thaliana)) is reported as “no binding”. For the same sequence, the binding [2] was “binds” and the binding [3] was “binds”.
